From PubChem BioAssay AID330 (DTP/NCI, 2004)
The list does not hold the whole screen: it gathers tests that were run many times, whatever their T/C, doses with no T/C, and many T/C values between a quarter and a half above the control. Other doses and runs of a compound stand elsewhere. T/C: endpoint of the treated group in % of that of the vehicle group. Some entries give survivors of the animals treated and no T/C: the source files T/C as zero there, which appears to mark a toxic dose or a test without result, not a measured value. Some doses without a T/C left all or most animals alive at the check, yet need not have been tolerated: survival well below the control is almost never listed, so the zero probably covers shortened survival too. Survivors were counted at the toxicity check, usually on the fifth day, unless a day is given; later deaths do not show. Schedules are NCI's codes, read here as Q, the interval in days (D) or hours (H), X, the number of doses. Some entries hold several experiments; their values stand side by side, smallest first. Marks such as (2×) give the number of equal values in this list. For survival time, the PubChem record calls one and a half times the control and up active, and a quarter to a half above the control has no call in these data; cut-offs in other NCI protocols can differ.

Test system: P388 leukemia ip, CD2F1 mice, survival T/C
Experiment: NCI In Vivo Anticancer Drug Screen. Data for tumor model P388 Leukemia (intraperitoneal) in CD2F1 (CDF1) mice
Settings: T/C endpoint: median survival time, higher T/C = longer survival
[1] = dose: 100.0 mg/kg/injection, schedule: Q01DX009 (ip), vehicle: Klucel (hydroxypropylcellulose) (HPC)
[2] = dose: 200.0 mg/kg/injection, schedule: Q01DX009 (ip), vehicle: Klucel (hydroxypropylcellulose) (HPC)
[3] = dose: 200.0 mg/kg/injection, schedule: Q01DX009 (ip), vehicle: saline with Tween-80
[4] = dose: 12.5 mg/kg/injection, schedule: Q01DX005 (ip), vehicle: saline with Tween-80
[5] = dose: 25.0 mg/kg/injection, schedule: Q01DX005 (ip), vehicle: saline with Tween-80
[6] = dose: 50.0 mg/kg/injection, schedule: Q01DX005 (ip), vehicle: saline with Tween-80
[7] = dose: 50.0 mg/kg/injection, schedule: Q01DX005 (ip), vehicle: Klucel (hydroxypropylcellulose) (HPC)
[8] = dose: 100.0 mg/kg/injection, schedule: Q01DX005 (ip), vehicle: Klucel (hydroxypropylcellulose) (HPC)
[9] = dose: 200.0 mg/kg/injection, schedule: Q01DX005 (ip), vehicle: Klucel (hydroxypropylcellulose) (HPC)
[10] = dose: 25.0 mg/kg/injection, schedule: Q01DX005 (ip), vehicle: saline
[11] = dose: 200.0 mg/kg/injection, schedule: Q01DX005 (ip), vehicle: saline with Tween-80
[12] = dose: 400.0 mg/kg/injection, schedule: Q01DX009 (ip), vehicle: saline
[13] = dose: 200.0 mg/kg/injection, schedule: Q01DX009 (ip), vehicle: saline

Compound: O=C(O)CCC(=O)OC(C1CO1)C(OC(=O)CCC(=O)O)C1CO1 (stereo not drawn)
- T/C (dose: 10.0 mg/kg/injection, schedule: Q01DX009 (ip), vehicle: saline): 126 % of control
- T/C (dose: 40.0 mg/kg/injection, schedule: Q01DX009 (ip), vehicle: sodium bicarbonate): 142 % of control
- T/C (dose: 160.0 mg/kg/injection, schedule: Q01DX009 (ip), vehicle: saline): 126 % of control

Compound: COc1cc2c(cc1OC)C13CC(=O)N(C(C)=O)N1CCCN3C2=O (stereo not drawn)
- survivor count (dose: 60.0 mg/kg/injection, schedule: Q01DX005 (ip), vehicle: Klucel (hydroxypropylcellulose) (HPC)): 6 of 6

Compound: CC(CN(C)C)Oc1ccccc1NC1=C(Cl)C(=O)C(Nc2ccccc2OC(C)CN(C)C)=C(Cl)C1=O (stereo not drawn)
- survivor count (dose: 40.0 mg/kg/injection, schedule: Q01DX009 (ip), vehicle: saline): 1 of 6 and 3 of 6

Compound: Cc1ccc(NC(=O)NC(=O)CCl)cc1
- survivor count (dose: 50.0 mg/kg/injection, schedule: Q01DX009 (ip), vehicle: saline with Tween-80): 5 of 6
- survivor count [1]: 0 of 6
- survivor count [2]: 0 of 6 (2×)
- survivor count [3]: 0 of 6

Compound: COc1cccc(/C(C#N)=N/NC(=O)c2nc[nH]c2C)c1
- survivor count [4]: 6 of 6
- survivor count [5]: 6 of 6
- survivor count [6]: 5 of 6

Compound: C#CC(C)C(C(C)=O)C(C)=O.[C-]#[O+].[C-]#[O+].[C-]#[O+].[C-]#[O+].[C-]#[O+].[C-]#[O+].[Co].[Co] (stereo not drawn)
- survivor count [7]: 0 of 6
- survivor count [8]: 0 of 6
- survivor count [9]: 0 of 6

Compound: CCOP(=O)(OCC)SCSC(C)C
- survivor count (dose: 0.78 mg/kg/injection, schedule: Q01DX009 (ip), vehicle: Klucel (hydroxypropylcellulose) (HPC)): 6 of 6
- survivor count (dose: 1.56 mg/kg/injection, schedule: Q01DX009 (ip), vehicle: Klucel (hydroxypropylcellulose) (HPC)): 6 of 6
- survivor count (dose: 3.12 mg/kg/injection, schedule: Q01DX009 (ip), vehicle: Klucel (hydroxypropylcellulose) (HPC)): 5 of 6
- survivor count (dose: 12.5 mg/kg/injection, schedule: Q01DX009 (ip), vehicle: Klucel (hydroxypropylcellulose) (HPC)): 0 of 6
- survivor count (dose: 25.0 mg/kg/injection, schedule: Q01DX009 (ip), vehicle: Klucel (hydroxypropylcellulose) (HPC)): 0 of 6
- survivor count (dose: 50.0 mg/kg/injection, schedule: Q01DX009 (ip), vehicle: Klucel (hydroxypropylcellulose) (HPC)): 0 of 6
- survivor count [1]: 0 of 6
- survivor count [2]: 0 of 6

Compound: COc1cc([C@@H]2c3cc4c(cc3[C@H](OC(=O)CCCC(=O)O)[C@H]3COC(=O)[C@H]23)OCO4)cc(OC)c1OC
- T/C [10]: 138 % of control
- survivor count [10]: 2 of 6
- survivor count (dose: 50.0 mg/kg/injection, schedule: Q01DX005 (ip), vehicle: saline): 0 of 6 and 2 of 6
- survivor count (dose: 100.0 mg/kg/injection, schedule: Q01DX005 (ip), vehicle: saline): 0 of 6
- survivor count (dose: 200.0 mg/kg/injection, schedule: Q01DX005 (ip), vehicle: saline): 0 of 6

Compound: c1ccc2cc(OCC(COc3ccc4ccccc4c3)(COc3ccc4ccccc4c3)COc3ccc4ccccc4c3)ccc2c1
- survivor count (dose: 15.0 mg/kg/injection, schedule: Q01DX009 (ip), vehicle: saline with Tween-80): 6 of 6
- survivor count (dose: 30.0 mg/kg/injection, schedule: Q01DX009 (ip), vehicle: saline with Tween-80): 6 of 6

Compound: CCCCC1NNC(CCCC)NN1 (stereo not drawn)
- survivor count [2]: 0 of 6

Compound: O=C1C=CC(=Nc2cc3c(cc2Br)-c2ccccc2C3=O)O1
- T/C [4]: 125 % of control
- survivor count [11]: 1 of 6

Compound: CN1CCCC(CN2c3ccccc3Sc3ccccc32)C1 (stereo not drawn)
- survivor count [11]: 3 of 6

Compound: CCCCCCCCCCCCCCCCCC1=NC(C)CC(C)(C)O1 (stereo not drawn)
- survivor count [12]: 5 of 6

Compound: CCCCCCCCCCCOc1cccc(N2C(N)=NC(N)=NC2(C)C)c1
- survivor count (dose: 60.0 mg/kg/injection, schedule: Q01DX005 (ip), vehicle: saline with Tween-80): 2 of 6
- survivor count (dose: 120.0 mg/kg/injection, schedule: Q01DX005 (ip), vehicle: saline with Tween-80): 0 of 6
- survivor count (dose: 240.0 mg/kg/injection, schedule: Q01DX005 (ip), vehicle: saline with Tween-80): 0 of 6

Compound: CC(Cl)C(=O)N(C)c1ccccc1 (stereo not drawn)
- survivor count (dose: 400.0 mg/kg/injection, schedule: Q04DX003 (ip), vehicle: Klucel (hydroxypropylcellulose) (HPC)): 1 of 6

Compound: COc1ccc(C2c3cc4c(cc3OC(C)(OC)C2C)OCO4)cc1 (stereo not drawn)
- survivor count [7]: 6 of 6
- survivor count [8]: 6 of 6
- survivor count [9]: 6 of 6

Compound: CC[PH+](CC)CC.CC[PH+](CC)CC.[Au]
- T/C (dose: 1.25 mg/kg/injection, schedule: Q01DX009 (ip), vehicle: water): 126 % of control
- survivor count (dose: 2.5 mg/kg/injection, schedule: Q01DX009 (ip), vehicle: water): 4 of 6
- survivor count (dose: 5.0 mg/kg/injection, schedule: Q01DX009 (ip), vehicle: water): 3 of 6
- survivor count (dose: 10.0 mg/kg/injection, schedule: Q01DX009 (ip), vehicle: water): 0 of 6
- survivor count (dose: 20.0 mg/kg/injection, schedule: Q01DX009 (ip), vehicle: water): 0 of 6

Compound: Cc1ccc(O)c(N)c1
- survivor count (dose: 100.0 mg/kg/injection, schedule: Q01DX009 (ip), vehicle: saline): 6 of 6
- T/C [13]: 132 % of control
- survivor count [12]: 0 of 6, 1 of 6, 4 of 6
- survivor count (dose: 600.0 mg/kg/injection, schedule: Q01DX009 (ip), vehicle: saline): 0 of 6

Compound: SCc1ccccc1CS
- T/C [3]: 131 % of control
- survivor count [3]: 3 of 6
- survivor count (dose: 400.0 mg/kg/injection, schedule: Q01DX009 (ip), vehicle: saline with Tween-80): 1 of 6 and 2 of 6

Compound: CCN(CC)C1CC(O[C@H]2C[C@](O)(C(=O)CO)Cc3c(O)c4c(c(O)c32)C(=O)c2c(OC)cccc2C4=O)OC(C)C1O (stereo partly drawn)
- T/C (dose: 0.39 mg/kg/injection, schedule: Q01DX009 (ip), vehicle: water): 125 and 142 % of control
- T/C (dose: 0.78 mg/kg/injection, schedule: Q01DX009 (ip), vehicle: water): 142 and 148 % of control
- T/C (dose: 1.56 mg/kg/injection, schedule: Q01DX009 (ip), vehicle: water): 149 % of control
- survivor count (dose: 6.25 mg/kg/injection, schedule: Q01DX009 (ip), vehicle: water): 5 of 6 and 6 of 6
- survivor count (dose: 12.5 mg/kg/injection, schedule: Q01DX009 (ip), vehicle: water): 2 of 6 and 3 of 6

Compound: CCNc1ncc2c(n1)N(CC)C(=O)/C(=C\C(=O)OC)N2
- survivor count (dose: 75.0 mg/kg/injection, schedule: Q01DX009 (ip), vehicle: saline with Tween-80): 6 of 6

Compound: COc1ccc(Cc2cc3c(cc2OCC(N)=O)OCO3)cc1
- survivor count [5]: 6 of 6
- survivor count [6]: 6 of 6
- survivor count (dose: 100.0 mg/kg/injection, schedule: Q01DX005 (ip), vehicle: saline with Tween-80): 6 of 6
- survivor count [11]: 6 of 6

Compound: Cn1c(C(O)CCl)nc2c3ccccc3ccc21 (stereo not drawn)
- survivor count (dose: 50.0 mg/kg/injection, schedule: Q01DX009 (ip), vehicle: saline): 6 of 6
- survivor count [13]: 6 of 6

Compound: NC(=O)C1CCCN1C(=O)C1CCCN(Cc2ccc(CN3CCCC(C(=O)N4CCCC4C(N)=O)C3)cc2)C1 (stereo not drawn)
- survivor count (dose: 240.0 mg/kg/injection, schedule: Q01DX005 (ip), vehicle: saline): 2 of 6

Compound: CC(C)=CCCC(C)(OC1OC(COC2OCC(O)C(O)C2O)C(O)C(O)C1O)C1CCC2(C)C1C(O)CC1C3(C)CCC(OC4OC(CO)C(O)C(O)C4OC4OC(CO)C(O)C(O)C4O)C(C)(C)C3CCC12C (stereo not drawn)
- survivor count (dose: 300.0 mg/kg/injection, schedule: Q01DX009 (ip), vehicle: Klucel (hydroxypropylcellulose) (HPC)): 0 of 6

Compound: Cc1cc(C(O)(C(F)(F)F)C(F)(F)F)c(N)c(C(O)(C(F)(F)F)C(F)(F)F)c1
- survivor count [9]: 0 of 6

Compound: CCc1nc(N)nc(N)c1-c1ccc(N(C)C)cc1
- survivor count [8]: 0 of 6
- survivor count [9]: 0 of 6

Compound: Cc1ccc(NSC(Cl)(Cl)Cl)cc1
- survivor count [13]: 5 of 6
- survivor count [12]: 3 of 6
